Experimental data taken from article PMC1698493.
For at least one entry, the source does not settle the construct or the ends of the probe. Where cells or extracts were used, other partners may take part. For some of these results: No signal at the amounts used counts as a negative. Protein sequences can lack the tags named with them.

These sequences were tested against T1, STAT6 (IL-4-activated, endogenous) (Mus musculus (C57BL/6)) (UniProt P52633) (assay: EMSA, supershift). Conditions: IL-4-treated extract; 20 mM HEPES pH 7.9, 6.25% glycerol, 0.5 mM EDTA, 50 ug/ml poly dIdC, 50 ug/ml BSA, 12.5 ug/ml salmon sperm DNA, 3 ug nuclear extract, 15 min room temperature; protein in an extract; label: 32P end label.
T1 sequence (looked up, limits assumed): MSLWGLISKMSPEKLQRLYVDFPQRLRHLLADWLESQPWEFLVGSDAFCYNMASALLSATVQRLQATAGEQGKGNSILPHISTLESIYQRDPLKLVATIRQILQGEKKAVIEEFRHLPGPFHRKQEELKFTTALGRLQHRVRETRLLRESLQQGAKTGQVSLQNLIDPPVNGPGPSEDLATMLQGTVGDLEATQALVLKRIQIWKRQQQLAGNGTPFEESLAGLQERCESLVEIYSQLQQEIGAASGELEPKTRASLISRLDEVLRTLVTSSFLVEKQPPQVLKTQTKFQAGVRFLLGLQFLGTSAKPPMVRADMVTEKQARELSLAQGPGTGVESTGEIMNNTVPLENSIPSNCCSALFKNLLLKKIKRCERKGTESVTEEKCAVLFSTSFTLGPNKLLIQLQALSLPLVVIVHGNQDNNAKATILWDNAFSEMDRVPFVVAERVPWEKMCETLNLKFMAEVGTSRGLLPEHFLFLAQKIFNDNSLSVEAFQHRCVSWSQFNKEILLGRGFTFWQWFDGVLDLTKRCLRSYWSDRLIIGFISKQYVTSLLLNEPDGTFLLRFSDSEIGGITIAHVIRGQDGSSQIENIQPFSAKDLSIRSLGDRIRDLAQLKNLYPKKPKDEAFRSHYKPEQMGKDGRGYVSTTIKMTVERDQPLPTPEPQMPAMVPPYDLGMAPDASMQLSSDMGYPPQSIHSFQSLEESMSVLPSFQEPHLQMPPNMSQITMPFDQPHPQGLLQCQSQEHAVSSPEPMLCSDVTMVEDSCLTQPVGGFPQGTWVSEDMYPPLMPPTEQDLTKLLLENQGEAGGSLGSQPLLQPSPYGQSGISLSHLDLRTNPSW
“AGTGACCATTCTCTGGAAAGCCACAA (double strand) [T2 probe]”: binds. “ATCTCAAATTCTTTGAATTTCTCTAG (double strand) [T1 probe]”: binds. “GGTTCTTTTTCTCAGTAAACCCTGGC (double strand) [T11 probe]”: binds. “TAGGCCTCTTCTACTGAACATCCCTG (double strand) [T4 probe]”: binds.

The sequences below were run against T1, STAT6 (IL-4-activated, endogenous) (Mus musculus (C57BL/6)) (assay: EMSA). Conditions: IL-4-treated extract; 20 mM HEPES pH 7.9, 6.25% glycerol, 0.5 mM EDTA, 50 ug/ml poly dIdC, 50 ug/ml BSA, 12.5 ug/ml salmon sperm DNA, 3 ug nuclear extract, 15 min room temperature; protein in an extract; label: 32P end label.
“AAACTCTTTTCTGGGCACTGTTGTTA (double strand) [T9 probe]”: no binding. “ATAGTGACTTGTCCTGAAACTCTTTT (double strand) [T10 probe]”: no binding. “CCTCTGGGTTCCCCAAAATAGGGTGG (double strand) [T5 probe]”: no binding. “CTATGGGCTTCTAGGGCAGCCTCTGG (double strand) [T8 probe]”: no binding. “GGCTCAGCTTCAGCTGAACCTCTGGG (double strand) [T6 probe]”: no binding. “GTGCTCTATTTCTGGGAGCTGAGCTT (double strand) [T7 probe]”: no binding. “TACTGAACATCCCTGTAACCTGCTCA (double strand) [T3 probe]”: no binding.

The sequences below were run against T1, STAT6 (IL-4-activated, endogenous) (Mus musculus (C57BL/6)) (assay: competition with a labelled probe). Conditions: unlabelled, 100-fold excess, competes STAT6 complex from T1, T2, T4 and T11 probes; 20 mM HEPES pH 7.9, 6.25% glycerol, 0.5 mM EDTA, 50 ug/ml poly dIdC, 50 ug/ml BSA, 12.5 ug/ml salmon sperm DNA, 3 ug nuclear extract, 15 min room temperature; protein in an extract; label: 32P end label.
“ATCTCAAATTCTTTGAATTTCTCTAG (double strand) [T1 probe]”: binds. “TAGGCCTCTTCTACTGAACATCCCTG (double strand) [T4 probe]”: binds.
